In paper PMC12346347:
No constants are given. Whether binding was seen depends on the method and setting. Binding seen in cells or lysates may run through a third protein. Some binding calls cover weakened binding; strength is not graded here. Sequences can lack the tags named with a protein.

Chains of the proteins cited; added tags and fusions are not shown.
UniProt Q15154: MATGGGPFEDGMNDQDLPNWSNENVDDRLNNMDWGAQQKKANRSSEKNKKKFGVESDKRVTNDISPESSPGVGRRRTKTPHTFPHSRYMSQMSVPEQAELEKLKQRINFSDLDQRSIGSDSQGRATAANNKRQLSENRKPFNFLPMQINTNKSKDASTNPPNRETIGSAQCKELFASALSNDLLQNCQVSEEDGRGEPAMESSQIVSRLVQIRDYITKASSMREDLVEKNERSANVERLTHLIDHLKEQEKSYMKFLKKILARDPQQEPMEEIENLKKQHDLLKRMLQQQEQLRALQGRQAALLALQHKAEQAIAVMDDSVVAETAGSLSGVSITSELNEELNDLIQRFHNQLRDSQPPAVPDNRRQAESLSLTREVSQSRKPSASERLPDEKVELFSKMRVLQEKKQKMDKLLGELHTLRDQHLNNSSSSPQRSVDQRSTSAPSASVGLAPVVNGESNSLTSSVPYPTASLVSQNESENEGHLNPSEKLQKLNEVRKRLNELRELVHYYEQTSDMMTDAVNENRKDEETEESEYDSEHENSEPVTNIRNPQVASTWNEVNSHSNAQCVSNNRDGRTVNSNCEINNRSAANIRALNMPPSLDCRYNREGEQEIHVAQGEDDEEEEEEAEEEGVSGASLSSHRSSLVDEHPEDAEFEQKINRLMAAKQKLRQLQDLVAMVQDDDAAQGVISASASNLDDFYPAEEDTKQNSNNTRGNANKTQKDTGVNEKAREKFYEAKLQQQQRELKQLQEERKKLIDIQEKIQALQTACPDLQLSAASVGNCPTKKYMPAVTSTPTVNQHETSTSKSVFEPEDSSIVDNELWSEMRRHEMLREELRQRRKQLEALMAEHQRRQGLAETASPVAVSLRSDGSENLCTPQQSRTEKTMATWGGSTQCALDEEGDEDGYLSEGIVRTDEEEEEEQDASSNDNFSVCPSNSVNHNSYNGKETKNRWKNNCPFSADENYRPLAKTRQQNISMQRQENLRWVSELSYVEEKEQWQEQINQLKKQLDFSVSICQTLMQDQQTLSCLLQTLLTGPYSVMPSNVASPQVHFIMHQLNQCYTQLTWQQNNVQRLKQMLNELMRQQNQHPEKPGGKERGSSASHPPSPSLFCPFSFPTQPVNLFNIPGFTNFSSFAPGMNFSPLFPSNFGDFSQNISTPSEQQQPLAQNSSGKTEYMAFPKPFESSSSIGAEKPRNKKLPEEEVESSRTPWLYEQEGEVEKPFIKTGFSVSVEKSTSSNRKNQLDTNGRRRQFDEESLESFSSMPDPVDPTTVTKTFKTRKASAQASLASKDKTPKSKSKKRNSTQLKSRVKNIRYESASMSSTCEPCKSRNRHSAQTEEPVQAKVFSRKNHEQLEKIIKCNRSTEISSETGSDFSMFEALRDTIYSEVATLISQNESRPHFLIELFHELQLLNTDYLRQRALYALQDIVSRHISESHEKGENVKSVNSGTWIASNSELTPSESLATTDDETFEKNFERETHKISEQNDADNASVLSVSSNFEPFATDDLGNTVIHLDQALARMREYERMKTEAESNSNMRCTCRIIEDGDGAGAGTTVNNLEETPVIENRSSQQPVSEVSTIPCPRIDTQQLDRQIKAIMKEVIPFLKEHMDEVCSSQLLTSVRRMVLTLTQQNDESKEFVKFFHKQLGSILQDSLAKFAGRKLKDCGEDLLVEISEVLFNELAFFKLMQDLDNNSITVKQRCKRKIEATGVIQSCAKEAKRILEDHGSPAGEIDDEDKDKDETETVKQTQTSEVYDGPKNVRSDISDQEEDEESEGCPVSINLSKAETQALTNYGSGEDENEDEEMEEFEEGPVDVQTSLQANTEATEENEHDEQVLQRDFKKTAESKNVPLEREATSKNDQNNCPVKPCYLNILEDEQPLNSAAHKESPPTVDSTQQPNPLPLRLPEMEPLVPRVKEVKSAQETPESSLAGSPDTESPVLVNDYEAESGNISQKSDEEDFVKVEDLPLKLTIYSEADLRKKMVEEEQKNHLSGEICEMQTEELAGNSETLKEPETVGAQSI

Columns and labels:
[1] = target: T1, Flag-tagged full-length human SDCCAG8 (human) (UniProt Q86SQ7); assay: co-IP; anti-Flag magnetic beads on lysates of HEK293T cells expressing Flag-tagged hSDCCAG8 constructs; endogenous PCM1 detected by Western blot; lysis buffer 0.2% Triton-X100, 0.05 mmol/L DTT; overnight at 4 °C; 5 washes with TBS
T1 sequence: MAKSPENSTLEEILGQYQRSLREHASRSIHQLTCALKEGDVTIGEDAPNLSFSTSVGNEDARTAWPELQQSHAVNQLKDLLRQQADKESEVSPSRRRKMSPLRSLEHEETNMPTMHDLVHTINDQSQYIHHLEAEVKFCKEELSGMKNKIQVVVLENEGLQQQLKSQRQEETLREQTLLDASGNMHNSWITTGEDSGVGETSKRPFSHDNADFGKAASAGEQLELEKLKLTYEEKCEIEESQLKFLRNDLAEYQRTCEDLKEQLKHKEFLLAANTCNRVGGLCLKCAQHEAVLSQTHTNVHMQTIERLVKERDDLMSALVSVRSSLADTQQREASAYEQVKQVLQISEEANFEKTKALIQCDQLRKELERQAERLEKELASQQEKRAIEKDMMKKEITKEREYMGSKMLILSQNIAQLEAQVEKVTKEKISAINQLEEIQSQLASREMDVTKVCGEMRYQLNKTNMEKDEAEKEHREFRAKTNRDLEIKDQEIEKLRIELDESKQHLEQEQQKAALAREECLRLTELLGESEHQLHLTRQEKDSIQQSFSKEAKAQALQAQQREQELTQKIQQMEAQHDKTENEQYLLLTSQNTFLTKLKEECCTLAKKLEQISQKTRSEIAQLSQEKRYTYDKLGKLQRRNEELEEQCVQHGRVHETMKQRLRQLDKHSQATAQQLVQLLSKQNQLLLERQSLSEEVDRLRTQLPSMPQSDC

[2] = target: T2, Flag-tagged hSDCCAG8-CC5–7 (human) (UniProt Q86SQ7); assay: as above
T2 sequence: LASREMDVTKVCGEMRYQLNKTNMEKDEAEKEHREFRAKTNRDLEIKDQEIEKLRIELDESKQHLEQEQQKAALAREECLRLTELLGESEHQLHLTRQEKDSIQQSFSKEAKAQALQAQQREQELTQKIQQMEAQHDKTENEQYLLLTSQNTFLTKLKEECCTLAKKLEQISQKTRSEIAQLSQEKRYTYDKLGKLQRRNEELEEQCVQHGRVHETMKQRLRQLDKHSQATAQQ

“pericentriolar material 1 (PCM1), endogenous in HEK293T cells (from UniProt Q15154 1-2024)” was tested, and the binding [1] was “binds” and the binding [2] was “binds”.
